Results as given in ChEMBL document CHEMBL4316593 (Eur J Med Chem, 2019).
The source gives many values for each of these; only a part stands here.

Assays:
Format in all cases: cell-based
Conditions in all cases: U-87MG ATCC
[1] = Inhibition of RTK/PI3K/AKT/mTOR signaling in human U87 cells assessed as down regulation of AP2M1 gene expression at cytotoxic IC50 measured after 48 hrs relative to control
[2] = Inhibition of RTK/PI3K/AKT/mTOR signaling in human U87 cells assessed as down regulation of KATNA1 gene expression at cytotoxic IC50 measured after 48 hrs relative to control
[3] = Inhibition of RTK/PI3K/AKT/mTOR signaling in human U87 cells assessed as down regulation of EGR2 gene expression at cytotoxic IC50 measured after 48 hrs relative to control
[4] = Inhibition of RTK/PI3K/AKT/mTOR signaling in human U87 cells assessed as up regulation of FBLIM1 gene expression at cytotoxic IC50 measured after 48 hrs relative to control
[5] = Inhibition of RTK/PI3K/AKT/mTOR signaling in human U87 cells assessed as down regulation of MCM10 gene expression at cytotoxic IC50 measured after 48 hrs relative to control
[6] = Inhibition of RTK/PI3K/AKT/mTOR signaling in human U87 cells assessed as down regulation of ID3 gene expression at cytotoxic IC50 measured after 48 hrs relative to control
[7] = Inhibition of RTK/PI3K/AKT/mTOR signaling in human U87 cells assessed as down regulation of ZNF367 gene expression at cytotoxic IC50 measured after 48 hrs relative to control
[8] = Inhibition of RTK/PI3K/AKT/mTOR signaling in human U87 cells assessed as down regulation of BACH1 gene expression at cytotoxic IC50 measured after 48 hrs relative to control
[9] = Inhibition of RTK/PI3K/AKT/mTOR signaling in human U87 cells assessed as down regulation of CDKN2C gene expression at cytotoxic IC50 measured after 48 hrs relative to control
[10] = Inhibition of RTK/PI3K/AKT/mTOR signaling in human U87 cells assessed as down regulation of WDR25 gene expression at cytotoxic IC50 measured after 48 hrs relative to control
[11] = Inhibition of RTK/PI3K/AKT/mTOR signaling in human U87 cells assessed as up regulation of adrenomedullin gene expression at cytotoxic IC50 measured after 48 hrs relative to control
[12] = Inhibition of RTK/PI3K/AKT/mTOR signaling in human U87 cells assessed as down regulation of RIOK2 gene expression at cytotoxic IC50 measured after 48 hrs relative to control
[13] = Inhibition of RTK/PI3K/AKT/mTOR signaling in human U87 cells assessed as down regulation of NEIL3 gene expression at cytotoxic IC50 measured after 48 hrs relative to control
[14] = Inhibition of RTK/PI3K/AKT/mTOR signaling in human U87 cells assessed as up regulation of PLPP2 gene expression at cytotoxic IC50 measured after 48 hrs relative to control
[15] = Inhibition of RTK/PI3K/AKT/mTOR signaling in human U87 cells assessed as down regulation of DSCC1 gene expression at cytotoxic IC50 measured after 48 hrs relative to control
[16] = Inhibition of RTK/PI3K/AKT/mTOR signaling in human U87 cells assessed as down regulation of ITFG1 gene expression at cytotoxic IC50 measured after 48 hrs relative to control
[17] = Inhibition of RTK/PI3K/AKT/mTOR signaling in human U87 cells assessed as up regulation of ZFP64 zinc finger protein gene expression at cytotoxic IC50 measured after 48 hrs relative to control
[18] = Inhibition of RTK/PI3K/AKT/mTOR signaling in human U87 cells assessed as down regulation of SPRTN gene expression at cytotoxic IC50 measured after 48 hrs relative to control
[19] = Inhibition of RTK/PI3K/AKT/mTOR signaling in human U87 cells assessed as up regulation of Ras related GTP binding D gene expression at cytotoxic IC50 measured after 48 hrs relative to control
[20] = Inhibition of RTK/PI3K/AKT/mTOR signaling in human U87 cells assessed as up regulation of phosphatidylinositol-5-phosphate 4-kinase type 2 alpha gene expression at cytotoxic IC50 measured after 48 hrs relative to control
[21] = Inhibition of RTK/PI3K/AKT/mTOR signaling in human U87 cells assessed as down regulation of GNPTAB gene expression at cytotoxic IC50 measured after 48 hrs relative to control
[22] = Inhibition of RTK/PI3K/AKT/mTOR signaling in human U87 cells assessed as up regulation of pleckstrin homology domain containing A4 gene expression at cytotoxic IC50 measured after 48 hrs relative to control
[23] = Inhibition of RTK/PI3K/AKT/mTOR signaling in human U87 cells assessed as up regulation of integrin subunit alpha 6 gene expression at cytotoxic IC50 measured after 48 hrs relative to control
[24] = Inhibition of RTK/PI3K/AKT/mTOR signaling in human U87 cells assessed as down regulation of RNF11 gene expression at cytotoxic IC50 measured after 48 hrs relative to control
[25] = Inhibition of RTK/PI3K/AKT/mTOR signaling in human U87 cells assessed as up regulation of PTOV1 antisense RNA 1 gene expression at cytotoxic IC50 measured after 48 hrs relative to control
[26] = Inhibition of RTK/PI3K/AKT/mTOR signaling in human U87 cells assessed as up regulation of zinc finger protein 292 gene expression at cytotoxic IC50 measured after 48 hrs relative to control
[27] = Inhibition of RTK/PI3K/AKT/mTOR signaling in human U87 cells assessed as down regulation of BTBD10 gene expression at cytotoxic IC50 measured after 48 hrs relative to control
[28] = Inhibition of RTK/PI3K/AKT/mTOR signaling in human U87 cells assessed as up regulation of TSC22D1 gene expression at cytotoxic IC50 measured after 48 hrs relative to control
[29] = Inhibition of RTK/PI3K/AKT/mTOR signaling in human U87 cells assessed as down regulation of AREL1 gene expression at cytotoxic IC50 measured after 48 hrs relative to control
[30] = Inhibition of RTK/PI3K/AKT/mTOR signaling in human U87 cells assessed as down regulation of SPTY2D1 gene expression at cytotoxic IC50 measured after 48 hrs relative to control
[31] = Inhibition of RTK/PI3K/AKT/mTOR signaling in human U87 cells assessed as down regulation of FAM53C gene expression at cytotoxic IC50 measured after 48 hrs relative to control
[32] = Inhibition of RTK/PI3K/AKT/mTOR signaling in human U87 cells assessed as down regulation of H2AFZ gene expression at cytotoxic IC50 measured after 48 hrs relative to control

## CC(=O)C(=NNc1ccccc1C#N)C(C)=O
[1]
  log2FC: -0.795
[2]
  log2FC: -0.869
[3]
  log2FC: -1.36
[4]
  log2FC: 3.31
[5]
  log2FC: -1.84
[6]
  log2FC: -1.13
[7]
  log2FC: -1.56
[8]
  log2FC: -0.871
[9]
  log2FC: -2.45
[10]
  log2FC: -1.26
[11]
  log2FC: 1.29
[12]
  log2FC: -1.18
[13]
  log2FC: -0.996
[14]
  log2FC: 1.72
[15]
  log2FC: -1.56
[16]
  log2FC: -0.718
[17]
  log2FC: 0.774
[18]
  log2FC: -1.16
[19]
  log2FC: 0.647
[20]
  log2FC: 0.807
[21]
  log2FC: -1.02
[22]
  log2FC: 1.01
[23]
  log2FC: 1.01
[24]
  log2FC: -0.432
[25]
  log2FC: 0.988
[26]
  log2FC: 1.05
[27]
  log2FC: -0.983
[28]
  log2FC: 0.594
[29]
  log2FC: -0.506
[30]
  log2FC: -0.831
[31]
  log2FC: -0.639
[32]
  log2FC: -0.681
